Data: the supplement of paper PMC7666118
The other results are listed elsewhere or left out.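 Rule for the calls: active = dose-dependent thermal stabilisation significant by F-test of dose-response against flat model at 10% FDR; inactive = not significant.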

Protein sequences, listed by entry. Tags and fused reporters are not part of them. Lines headed by an entry give the natural chain unless they say otherwise; changes in a name come on top.
UniProt Q96SB4, whole entry: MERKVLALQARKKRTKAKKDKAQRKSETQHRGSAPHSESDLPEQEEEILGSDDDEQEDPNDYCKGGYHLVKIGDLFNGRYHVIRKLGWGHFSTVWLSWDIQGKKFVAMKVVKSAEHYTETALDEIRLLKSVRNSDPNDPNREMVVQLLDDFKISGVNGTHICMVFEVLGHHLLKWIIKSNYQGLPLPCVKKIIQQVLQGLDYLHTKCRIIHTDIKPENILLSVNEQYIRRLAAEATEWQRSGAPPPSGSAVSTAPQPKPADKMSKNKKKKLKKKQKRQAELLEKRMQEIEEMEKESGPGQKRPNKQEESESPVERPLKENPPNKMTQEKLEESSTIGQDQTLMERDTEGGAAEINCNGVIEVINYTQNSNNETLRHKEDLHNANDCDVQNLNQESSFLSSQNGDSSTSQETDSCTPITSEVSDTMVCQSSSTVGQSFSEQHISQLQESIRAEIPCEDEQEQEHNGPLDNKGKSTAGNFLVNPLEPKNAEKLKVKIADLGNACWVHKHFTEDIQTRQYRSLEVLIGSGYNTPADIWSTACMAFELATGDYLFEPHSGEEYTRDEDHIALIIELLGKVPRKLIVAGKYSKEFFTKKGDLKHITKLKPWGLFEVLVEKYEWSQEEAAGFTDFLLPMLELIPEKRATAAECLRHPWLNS
UniProt Q9NXA8: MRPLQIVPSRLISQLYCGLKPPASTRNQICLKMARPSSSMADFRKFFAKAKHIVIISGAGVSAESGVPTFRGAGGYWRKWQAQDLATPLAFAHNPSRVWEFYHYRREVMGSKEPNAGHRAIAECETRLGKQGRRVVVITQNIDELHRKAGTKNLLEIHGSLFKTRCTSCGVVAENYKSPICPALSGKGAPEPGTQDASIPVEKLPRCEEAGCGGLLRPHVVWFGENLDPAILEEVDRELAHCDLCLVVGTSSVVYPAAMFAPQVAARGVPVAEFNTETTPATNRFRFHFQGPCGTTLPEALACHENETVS
UniProt Q69YQ0: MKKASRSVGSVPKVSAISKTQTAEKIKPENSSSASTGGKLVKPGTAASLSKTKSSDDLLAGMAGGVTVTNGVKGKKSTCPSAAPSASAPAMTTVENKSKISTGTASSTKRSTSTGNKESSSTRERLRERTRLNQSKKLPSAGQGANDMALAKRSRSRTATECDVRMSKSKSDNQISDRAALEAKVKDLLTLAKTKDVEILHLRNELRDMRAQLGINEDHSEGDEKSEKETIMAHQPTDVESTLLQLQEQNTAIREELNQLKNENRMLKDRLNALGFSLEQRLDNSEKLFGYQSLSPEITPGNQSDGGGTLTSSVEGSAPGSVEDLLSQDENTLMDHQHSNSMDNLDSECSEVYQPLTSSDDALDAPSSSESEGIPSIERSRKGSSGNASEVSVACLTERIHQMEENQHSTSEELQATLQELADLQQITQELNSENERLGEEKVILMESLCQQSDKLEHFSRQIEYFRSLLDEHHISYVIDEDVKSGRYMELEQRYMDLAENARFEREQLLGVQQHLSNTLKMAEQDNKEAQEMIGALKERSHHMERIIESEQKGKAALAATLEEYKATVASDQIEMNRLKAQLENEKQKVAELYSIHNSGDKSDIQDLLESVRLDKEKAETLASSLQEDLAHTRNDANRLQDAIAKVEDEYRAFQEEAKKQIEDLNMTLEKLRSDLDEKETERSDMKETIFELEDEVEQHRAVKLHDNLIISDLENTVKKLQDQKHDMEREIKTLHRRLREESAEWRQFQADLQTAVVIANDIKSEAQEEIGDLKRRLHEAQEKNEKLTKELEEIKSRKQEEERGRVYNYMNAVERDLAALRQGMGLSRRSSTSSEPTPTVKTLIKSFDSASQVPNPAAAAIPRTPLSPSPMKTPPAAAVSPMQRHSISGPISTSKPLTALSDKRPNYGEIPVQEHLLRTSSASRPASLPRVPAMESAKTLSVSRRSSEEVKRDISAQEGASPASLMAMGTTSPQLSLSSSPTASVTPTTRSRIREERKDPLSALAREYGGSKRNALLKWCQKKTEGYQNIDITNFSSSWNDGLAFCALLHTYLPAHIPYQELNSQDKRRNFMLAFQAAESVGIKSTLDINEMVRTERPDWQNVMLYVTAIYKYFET
UniProt P12755: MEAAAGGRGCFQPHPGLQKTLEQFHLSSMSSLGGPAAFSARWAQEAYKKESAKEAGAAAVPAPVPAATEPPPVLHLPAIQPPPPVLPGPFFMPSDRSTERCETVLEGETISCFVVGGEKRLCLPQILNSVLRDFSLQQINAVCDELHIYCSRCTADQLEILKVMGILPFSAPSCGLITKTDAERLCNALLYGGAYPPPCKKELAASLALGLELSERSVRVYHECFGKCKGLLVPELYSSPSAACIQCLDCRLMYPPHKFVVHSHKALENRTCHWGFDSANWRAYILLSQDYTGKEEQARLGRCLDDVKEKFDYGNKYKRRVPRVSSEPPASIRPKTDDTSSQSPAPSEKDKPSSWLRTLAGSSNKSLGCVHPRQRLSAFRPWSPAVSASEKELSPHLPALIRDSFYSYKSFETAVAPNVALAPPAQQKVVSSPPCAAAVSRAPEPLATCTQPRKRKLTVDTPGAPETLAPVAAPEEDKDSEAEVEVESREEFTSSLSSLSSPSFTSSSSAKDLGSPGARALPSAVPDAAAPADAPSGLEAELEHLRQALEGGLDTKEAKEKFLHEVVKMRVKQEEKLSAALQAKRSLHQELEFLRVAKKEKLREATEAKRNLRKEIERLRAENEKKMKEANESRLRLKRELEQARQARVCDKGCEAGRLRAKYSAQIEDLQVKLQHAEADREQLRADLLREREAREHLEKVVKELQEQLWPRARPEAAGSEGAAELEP
UniProt Q9H4L7: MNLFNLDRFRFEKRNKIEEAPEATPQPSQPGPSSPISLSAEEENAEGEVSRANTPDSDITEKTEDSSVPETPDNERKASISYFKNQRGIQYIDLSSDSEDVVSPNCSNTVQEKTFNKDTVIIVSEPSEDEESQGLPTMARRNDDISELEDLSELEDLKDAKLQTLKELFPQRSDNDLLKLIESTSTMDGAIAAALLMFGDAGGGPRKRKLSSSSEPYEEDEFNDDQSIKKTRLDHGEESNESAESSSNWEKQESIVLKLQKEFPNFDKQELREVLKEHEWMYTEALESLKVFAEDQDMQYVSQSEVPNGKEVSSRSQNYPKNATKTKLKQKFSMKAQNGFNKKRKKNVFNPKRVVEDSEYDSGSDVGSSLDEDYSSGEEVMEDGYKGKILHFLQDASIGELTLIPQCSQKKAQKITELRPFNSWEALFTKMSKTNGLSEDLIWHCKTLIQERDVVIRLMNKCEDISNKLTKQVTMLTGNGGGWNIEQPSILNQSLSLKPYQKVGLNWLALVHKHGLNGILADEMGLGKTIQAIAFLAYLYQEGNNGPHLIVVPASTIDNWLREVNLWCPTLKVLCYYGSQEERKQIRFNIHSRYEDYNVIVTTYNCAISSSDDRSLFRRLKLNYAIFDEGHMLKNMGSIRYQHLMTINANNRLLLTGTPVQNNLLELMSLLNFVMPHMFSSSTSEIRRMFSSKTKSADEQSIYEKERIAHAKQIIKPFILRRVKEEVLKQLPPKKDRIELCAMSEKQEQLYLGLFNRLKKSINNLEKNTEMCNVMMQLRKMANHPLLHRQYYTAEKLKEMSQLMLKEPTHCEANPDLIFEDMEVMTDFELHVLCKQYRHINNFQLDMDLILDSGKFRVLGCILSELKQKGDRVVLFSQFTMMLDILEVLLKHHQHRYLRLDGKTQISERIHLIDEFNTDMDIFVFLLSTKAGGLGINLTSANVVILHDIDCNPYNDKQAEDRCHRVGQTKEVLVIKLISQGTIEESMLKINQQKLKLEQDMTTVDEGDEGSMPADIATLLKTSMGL
UniProt Q8WVK2: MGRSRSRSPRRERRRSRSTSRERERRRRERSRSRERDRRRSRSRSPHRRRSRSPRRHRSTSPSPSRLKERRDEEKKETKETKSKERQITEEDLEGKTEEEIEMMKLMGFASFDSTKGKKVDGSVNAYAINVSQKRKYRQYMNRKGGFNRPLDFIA
UniProt O60499: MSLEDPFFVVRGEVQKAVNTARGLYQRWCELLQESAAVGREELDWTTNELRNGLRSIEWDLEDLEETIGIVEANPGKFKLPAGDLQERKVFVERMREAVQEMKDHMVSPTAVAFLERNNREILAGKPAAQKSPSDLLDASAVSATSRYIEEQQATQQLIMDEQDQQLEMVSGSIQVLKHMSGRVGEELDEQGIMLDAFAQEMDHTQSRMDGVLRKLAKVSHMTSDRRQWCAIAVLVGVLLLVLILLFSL
UniProt Q92922, whole entry: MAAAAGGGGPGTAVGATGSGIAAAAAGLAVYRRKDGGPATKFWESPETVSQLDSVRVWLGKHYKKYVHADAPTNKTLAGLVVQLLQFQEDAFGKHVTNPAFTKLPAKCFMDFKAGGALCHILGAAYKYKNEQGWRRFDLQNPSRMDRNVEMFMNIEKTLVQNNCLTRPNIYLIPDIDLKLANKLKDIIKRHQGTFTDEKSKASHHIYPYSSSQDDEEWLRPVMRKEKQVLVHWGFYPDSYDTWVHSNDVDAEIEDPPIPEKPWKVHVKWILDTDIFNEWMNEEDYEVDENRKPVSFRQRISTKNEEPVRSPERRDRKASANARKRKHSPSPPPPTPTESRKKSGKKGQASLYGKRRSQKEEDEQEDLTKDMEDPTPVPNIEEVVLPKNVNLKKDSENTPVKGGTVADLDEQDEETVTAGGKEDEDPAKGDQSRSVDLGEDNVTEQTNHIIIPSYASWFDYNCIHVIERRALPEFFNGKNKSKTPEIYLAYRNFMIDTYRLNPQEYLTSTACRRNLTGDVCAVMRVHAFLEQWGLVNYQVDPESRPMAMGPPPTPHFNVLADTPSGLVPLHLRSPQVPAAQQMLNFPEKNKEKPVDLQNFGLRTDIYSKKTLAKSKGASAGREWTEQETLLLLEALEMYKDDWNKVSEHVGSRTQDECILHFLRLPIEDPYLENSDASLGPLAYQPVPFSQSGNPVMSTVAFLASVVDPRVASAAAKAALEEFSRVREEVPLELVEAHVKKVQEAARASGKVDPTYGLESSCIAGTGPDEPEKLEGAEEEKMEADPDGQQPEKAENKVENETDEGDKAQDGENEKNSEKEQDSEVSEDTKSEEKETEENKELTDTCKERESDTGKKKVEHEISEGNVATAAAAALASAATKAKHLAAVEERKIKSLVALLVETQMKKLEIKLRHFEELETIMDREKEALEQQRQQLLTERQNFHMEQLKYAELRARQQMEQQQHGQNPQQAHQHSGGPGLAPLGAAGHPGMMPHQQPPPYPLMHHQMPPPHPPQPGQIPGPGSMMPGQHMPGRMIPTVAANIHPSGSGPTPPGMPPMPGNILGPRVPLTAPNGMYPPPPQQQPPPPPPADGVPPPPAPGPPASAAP

Compound: Nc1nc2c(ncn2[C@@H]2O[C@H](COP(=O)(O)OP(=O)(O)OP(=O)(O)O)[C@@H](O)[C@H]2O)c(=O)[nH]1
Test: dose-dependent thermal stabilisation call (2D-TPP, DLPTP, 10% FDR) (binary (1 = stabilised)); higher = stabilised by the compound
Details: system: Jurkat gel-filtered lysate; concentration range 1-500 µM

dose-dependent thermal stabilisation call, inactive:
SRPK1 (UniProt Q96SB4) 0
SIRT5 (UniProt Q9NXA8) 0
SPECC1L (UniProt Q69YQ0) 0
SKI (UniProt P12755) 0
SMARCAD1 (UniProt Q9H4L7) 0
SNRNP27 (UniProt Q8WVK2) 0
STX10 (UniProt O60499) 0
SMARCC1 (UniProt Q92922) 0
